Values from PubChem BioAssay AID1259254 (NCATS, 2017).
Test: 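Finding genes that stop cells copying their DNA twice in one cycle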 (primary screen). Cells: human HCT116 colorectal cancer cells. Knock-down reagent: single siRNA against human genes. Duration: 3 days. Measured: 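Imaged Hoechst DNA stain sorts each cell into a cycle phase by DNA amount; per plate, G2 fraction set to 0% for non-targeting and 100% for GMNN siRNA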. Direction: G2 robust z-score and G2 cells, % of GMNN control: higher = more G2 cells, more excess DNA replication; raw share of cells in G2: higher = larger share of cells with G2 DNA content. Call rule: 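An siRNA counts as active if its G2 robust z-score lies at least 5 MADs above the screen median; here such calls match roughly 38% of GMNN control or more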.
In all, the deposit lists about 59,000 reagents; below is a part drawn at random. About 1,550 of all reagents (2.6%) were called active. 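G2 share is only a proxy for re-replication; each gene was hit by three separate siRNAs, and active genes were retested.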 The raw values are shown without normalisation. A number with no mark means an inactive call. Reagents against one gene are numbered here. Not given: the amount of reagent.

Target gene | reagent no. | G2 robust z-score | G2 cells, % of GMNN control | raw share of cells in G2 (%)
DDX60 (DExD/H-box helicase 60) | 1 | -0.77 | -2.45 | 3.58
DDX60 (DExD/H-box helicase 60) | 2 | -0.364 | 0.407 | 4.31
DDX60 (DExD/H-box helicase 60) | 3 | -0.611 | -1.33 | 2.71
RPS10P30 (ribosomal protein S10 pseudogene 30) | 1 | 2.55 | 20.9 | 12.4
RPS10P30 (ribosomal protein S10 pseudogene 30) | 2 | -0.295 | 0.895 | 4.55
RPS10P30 (ribosomal protein S10 pseudogene 30) | 3 | 4.67 | 35.8 | 16.3
DPEP2 (dipeptidase 2) | 1 | -0.744 | -2.27 | 4.64
DPEP2 (dipeptidase 2) | 2 | 0.206 | 4.42 | 5.93
DPEP2 (dipeptidase 2) | 3 | 5.41 (active) | 41 | 19.5
STIL (STIL centriolar assembly protein) | 1 | 1.1 | 10.7 | 9.54
STIL (STIL centriolar assembly protein) | 2 | 1.27 | 11.9 | 8.93
STIL (STIL centriolar assembly protein) | 3 | 1.98 | 16.9 | 9.45
DHRS7 (dehydrogenase/reductase 7) | 1 | 0.0699 | 3.46 | 5.52
DHRS7 (dehydrogenase/reductase 7) | 2 | -1.05 | -4.43 | 2.1
DHRS7 (dehydrogenase/reductase 7) | 3 | 0.881 | 9.17 | 10.1
NOL4 (nucleolar protein 4) | 1 | -0.833 | -2.89 | 3.85
NOL4 (nucleolar protein 4) | 2 | 0.604 | 7.22 | 6.76
NOL4 (nucleolar protein 4) | 3 | 0.0532 | 3.34 | 4.53
PHYHIPL (phytanoyl-CoA 2-hydroxylase interacting protein like) | 1 | -0.287 | 0.949 | 4.42
PHYHIPL (phytanoyl-CoA 2-hydroxylase interacting protein like) | 2 | 1.16 | 11.1 | 6.75
PHYHIPL (phytanoyl-CoA 2-hydroxylase interacting protein like) | 3 | 0.672 | 7.69 | 4.74
PRAME (PRAME nuclear receptor transcriptional regulator) | 1 | 1.64 | 14.5 | 9.86
PRAME (PRAME nuclear receptor transcriptional regulator) | 2 | 0.274 | 4.89 | 6.06
PRAME (PRAME nuclear receptor transcriptional regulator) | 3 | 0.899 | 9.29 | 6.55
MS4A6A (membrane spanning 4-domains A6A) | 1 | -0.76 | -2.38 | 4.66
MS4A6A (membrane spanning 4-domains A6A) | 2 | -1.36 | -6.62 | 2.01
MS4A6A (membrane spanning 4-domains A6A) | 3 | 1.83 | 15.9 | 9.99
CCDC88C (coiled-coil and HOOK domain protein 88C) | 1 | 0.772 | 8.4 | 6.86
CCDC88C (coiled-coil and HOOK domain protein 88C) | 2 | 0.356 | 5.47 | 5.49
CCDC88C (coiled-coil and HOOK domain protein 88C) | 3 | 0.193 | 4.32 | 4.59
ERCC2 (ERCC excision repair 2, TFIIH core complex helicase subunit) | 1 | 0.207 | 4.43 | 6.84
ERCC2 (ERCC excision repair 2, TFIIH core complex helicase subunit) | 2 | 7.17 (active) | 53.4 | 25.6
ERCC2 (ERCC excision repair 2, TFIIH core complex helicase subunit) | 3 | -0.0824 | 2.39 | 4.51
FCHO2 (FCH and mu domain containing endocytic adaptor 2) | 1 | -0.0138 | 2.87 | 5.24
FCHO2 (FCH and mu domain containing endocytic adaptor 2) | 2 | -1.22 | -5.65 | 1.65
FCHO2 (FCH and mu domain containing endocytic adaptor 2) | 3 | -0.998 | -4.05 | 0.634
UQCRBP1 | 1 | -0.768 | -2.44 | 2.71
UQCRBP1 | 2 | 0.317 | 5.2 | 5.14
UQCRBP1 | 3 | 0.293 | 5.03 | 4.61
DKK4 (dickkopf Wnt signaling pathway inhibitor 4) | 1 | -1.18 | -5.31 | 1.83
DKK4 (dickkopf Wnt signaling pathway inhibitor 4) | 2 | 2.24 | 18.8 | 11.6
DKK4 (dickkopf Wnt signaling pathway inhibitor 4) | 3 | -0.66 | -1.68 | 2.72
MAST4 | 1 | -0.284 | 0.969 | 4.1
MAST4 | 2 | -0.0368 | 2.71 | 4.58
MAST4 | 3 | -0.574 | -1.07 | 4.18
VAMP3 (vesicle associated membrane protein 3) | 1 | 1.6 | 14.2 | 11.7
VAMP3 (vesicle associated membrane protein 3) | 2 | -0.47 | -0.338 | 3.8
VAMP3 (vesicle associated membrane protein 3) | 3 | 0.665 | 7.64 | 6.19
PTGDS (prostaglandin D2 synthase) | 1 | -1.2 | -5.47 | 3.1
PTGDS (prostaglandin D2 synthase) | 2 | 0.932 | 9.52 | 8.32
PTGDS (prostaglandin D2 synthase) | 3 | 1.97 | 16.8 | 9.74
ART1 (ADP-ribosyltransferase 1) | 1 | -1.16 | -5.18 | 2.96
ART1 (ADP-ribosyltransferase 1) | 2 | 1.76 | 15.3 | 10.5
ART1 (ADP-ribosyltransferase 1) | 3 | 0.2 | 4.38 | 5.62
MELTF (melanotransferrin) | 1 | -1.06 | -4.5 | 1.71
MELTF (melanotransferrin) | 2 | -0.79 | -2.59 | 4.36
MELTF (melanotransferrin) | 3 | -1.18 | -5.31 | 3.37
MAP1S (microtubule associated protein 1S) | 1 | 0.0485 | 3.31 | 7.88
MAP1S (microtubule associated protein 1S) | 2 | 1.82 | 15.7 | 10.1
MAP1S (microtubule associated protein 1S) | 3 | 0.362 | 5.52 | 6.63
SLCO1B3 | 1 | -0.42 | 0.0153 | 3.99
SLCO1B3 | 2 | 0.666 | 7.65 | 9.64
SLCO1B3 | 3 | 2.87 | 23.1 | 11.9
CA5A (carbonic anhydrase 5A) | 1 | -1.2 | -5.48 | 2.85
CA5A (carbonic anhydrase 5A) | 2 | 1.02 | 10.2 | 8.69
CA5A (carbonic anhydrase 5A) | 3 | 3.54 | 27.9 | 14.4
MPZL3 (myelin protein zero like 3) | 1 | 1.41 | 12.9 | 8.23
MPZL3 (myelin protein zero like 3) | 2 | 7.54 (active) | 56 | 21.7
MPZL3 (myelin protein zero like 3) | 3 | -0.101 | 2.26 | 3.48

Active calls, among the entries above:
Target gene | reagent no. | G2 robust z-score | G2 cells, % of GMNN control | raw share of cells in G2 (%)
DPEP2 (dipeptidase 2) | 3 | 5.41 (active) | 41 | 19.5
ERCC2 (ERCC excision repair 2, TFIIH core complex helicase subunit) | 2 | 7.17 (active) | 53.4 | 25.6
MPZL3 (myelin protein zero like 3) | 2 | 7.54 (active) | 56 | 21.7
